Source: the supplement of paper PMC10849652
This is one part of the list.

The chains behind the UniProt entries cited, without tags or fusion partners. Where a name states a change or a piece, a line headed by the entry shows the natural chain unless it says otherwise.
UniProt P23434: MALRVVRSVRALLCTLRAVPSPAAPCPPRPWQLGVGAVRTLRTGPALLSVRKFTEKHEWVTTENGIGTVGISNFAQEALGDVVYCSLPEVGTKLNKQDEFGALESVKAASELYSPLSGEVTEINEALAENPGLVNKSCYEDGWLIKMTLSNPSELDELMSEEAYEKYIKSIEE
UniProt O14976: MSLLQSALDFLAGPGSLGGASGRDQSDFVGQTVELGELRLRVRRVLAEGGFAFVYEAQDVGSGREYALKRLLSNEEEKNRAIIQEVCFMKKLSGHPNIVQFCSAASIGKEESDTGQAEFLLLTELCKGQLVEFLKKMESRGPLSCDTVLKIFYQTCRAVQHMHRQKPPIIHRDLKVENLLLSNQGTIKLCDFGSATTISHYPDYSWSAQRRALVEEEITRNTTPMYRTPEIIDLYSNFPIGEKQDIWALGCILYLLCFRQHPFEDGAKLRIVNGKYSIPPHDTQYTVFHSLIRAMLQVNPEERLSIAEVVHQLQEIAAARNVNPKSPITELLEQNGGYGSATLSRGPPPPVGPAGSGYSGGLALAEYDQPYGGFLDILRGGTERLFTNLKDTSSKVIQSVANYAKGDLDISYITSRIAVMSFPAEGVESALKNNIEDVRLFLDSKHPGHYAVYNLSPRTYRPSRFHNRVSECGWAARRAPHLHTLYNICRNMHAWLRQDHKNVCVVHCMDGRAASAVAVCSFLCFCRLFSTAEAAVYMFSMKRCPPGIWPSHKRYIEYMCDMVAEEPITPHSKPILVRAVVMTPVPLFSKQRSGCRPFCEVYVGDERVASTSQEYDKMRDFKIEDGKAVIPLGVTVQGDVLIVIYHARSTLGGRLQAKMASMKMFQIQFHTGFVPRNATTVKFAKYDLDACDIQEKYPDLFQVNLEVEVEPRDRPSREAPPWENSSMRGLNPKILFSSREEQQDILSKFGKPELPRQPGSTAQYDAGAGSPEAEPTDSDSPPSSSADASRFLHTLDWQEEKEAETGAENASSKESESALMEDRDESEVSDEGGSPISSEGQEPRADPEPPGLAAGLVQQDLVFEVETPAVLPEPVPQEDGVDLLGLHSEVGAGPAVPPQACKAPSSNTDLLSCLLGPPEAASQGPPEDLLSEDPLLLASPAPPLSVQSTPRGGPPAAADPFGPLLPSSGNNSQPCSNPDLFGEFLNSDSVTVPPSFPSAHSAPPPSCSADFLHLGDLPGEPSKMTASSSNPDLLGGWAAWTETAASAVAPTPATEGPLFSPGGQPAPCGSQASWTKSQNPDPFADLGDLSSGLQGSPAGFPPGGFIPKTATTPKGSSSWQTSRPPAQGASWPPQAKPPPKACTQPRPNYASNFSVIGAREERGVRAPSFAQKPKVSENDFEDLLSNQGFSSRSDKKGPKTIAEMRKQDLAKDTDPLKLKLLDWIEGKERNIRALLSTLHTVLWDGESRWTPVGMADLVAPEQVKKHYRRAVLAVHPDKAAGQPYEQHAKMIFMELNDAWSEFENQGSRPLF
UniProt P41250: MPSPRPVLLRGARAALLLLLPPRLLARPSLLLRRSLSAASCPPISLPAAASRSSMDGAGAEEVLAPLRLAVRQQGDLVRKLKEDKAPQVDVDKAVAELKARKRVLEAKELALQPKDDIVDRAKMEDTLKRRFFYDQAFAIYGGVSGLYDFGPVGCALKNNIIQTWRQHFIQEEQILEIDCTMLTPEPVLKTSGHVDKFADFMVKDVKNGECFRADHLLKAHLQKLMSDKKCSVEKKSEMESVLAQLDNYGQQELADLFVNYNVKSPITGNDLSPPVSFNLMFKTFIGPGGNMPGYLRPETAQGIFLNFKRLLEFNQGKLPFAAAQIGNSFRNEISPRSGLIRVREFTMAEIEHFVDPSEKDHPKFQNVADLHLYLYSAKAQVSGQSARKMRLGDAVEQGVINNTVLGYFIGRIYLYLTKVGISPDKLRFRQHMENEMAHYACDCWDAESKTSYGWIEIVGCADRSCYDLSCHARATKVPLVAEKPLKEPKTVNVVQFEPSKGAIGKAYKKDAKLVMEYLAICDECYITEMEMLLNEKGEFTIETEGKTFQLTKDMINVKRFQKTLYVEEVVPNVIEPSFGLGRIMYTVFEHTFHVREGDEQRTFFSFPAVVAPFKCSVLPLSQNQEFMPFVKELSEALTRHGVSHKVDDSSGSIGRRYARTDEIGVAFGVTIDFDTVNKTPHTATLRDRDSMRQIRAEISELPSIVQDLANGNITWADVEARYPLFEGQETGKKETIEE
UniProt Q969S9: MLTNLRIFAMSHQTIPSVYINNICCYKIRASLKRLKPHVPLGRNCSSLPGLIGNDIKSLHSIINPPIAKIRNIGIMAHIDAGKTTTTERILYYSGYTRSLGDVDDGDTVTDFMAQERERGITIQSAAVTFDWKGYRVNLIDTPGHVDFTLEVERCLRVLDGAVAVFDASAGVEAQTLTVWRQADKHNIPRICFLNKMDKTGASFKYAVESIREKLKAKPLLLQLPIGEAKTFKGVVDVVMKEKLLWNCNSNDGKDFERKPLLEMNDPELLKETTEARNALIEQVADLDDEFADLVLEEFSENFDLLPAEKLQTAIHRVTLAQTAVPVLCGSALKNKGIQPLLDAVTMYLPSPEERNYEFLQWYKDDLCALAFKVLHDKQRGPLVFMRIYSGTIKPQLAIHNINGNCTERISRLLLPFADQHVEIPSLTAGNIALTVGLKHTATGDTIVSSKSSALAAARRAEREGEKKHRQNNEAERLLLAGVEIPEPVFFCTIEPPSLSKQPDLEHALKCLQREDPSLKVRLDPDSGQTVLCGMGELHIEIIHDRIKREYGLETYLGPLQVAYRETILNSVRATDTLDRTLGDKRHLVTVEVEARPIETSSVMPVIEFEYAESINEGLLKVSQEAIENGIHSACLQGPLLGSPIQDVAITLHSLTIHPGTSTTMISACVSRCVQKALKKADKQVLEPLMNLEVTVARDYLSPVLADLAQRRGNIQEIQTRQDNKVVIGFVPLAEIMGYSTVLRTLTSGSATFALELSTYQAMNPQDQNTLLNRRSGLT
UniProt Q96CU9: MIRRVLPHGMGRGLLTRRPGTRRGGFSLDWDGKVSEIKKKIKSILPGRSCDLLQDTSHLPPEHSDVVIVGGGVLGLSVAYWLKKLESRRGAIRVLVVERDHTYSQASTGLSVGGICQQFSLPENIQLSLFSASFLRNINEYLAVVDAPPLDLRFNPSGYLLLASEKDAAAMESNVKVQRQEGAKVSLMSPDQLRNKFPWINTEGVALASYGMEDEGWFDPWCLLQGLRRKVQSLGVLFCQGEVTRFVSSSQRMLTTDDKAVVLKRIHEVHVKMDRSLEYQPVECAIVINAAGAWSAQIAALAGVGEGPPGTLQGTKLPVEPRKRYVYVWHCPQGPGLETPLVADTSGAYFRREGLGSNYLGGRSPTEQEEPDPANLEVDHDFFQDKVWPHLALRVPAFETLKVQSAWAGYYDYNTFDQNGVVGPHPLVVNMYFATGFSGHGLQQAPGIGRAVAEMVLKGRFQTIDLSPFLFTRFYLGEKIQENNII
UniProt Q01415: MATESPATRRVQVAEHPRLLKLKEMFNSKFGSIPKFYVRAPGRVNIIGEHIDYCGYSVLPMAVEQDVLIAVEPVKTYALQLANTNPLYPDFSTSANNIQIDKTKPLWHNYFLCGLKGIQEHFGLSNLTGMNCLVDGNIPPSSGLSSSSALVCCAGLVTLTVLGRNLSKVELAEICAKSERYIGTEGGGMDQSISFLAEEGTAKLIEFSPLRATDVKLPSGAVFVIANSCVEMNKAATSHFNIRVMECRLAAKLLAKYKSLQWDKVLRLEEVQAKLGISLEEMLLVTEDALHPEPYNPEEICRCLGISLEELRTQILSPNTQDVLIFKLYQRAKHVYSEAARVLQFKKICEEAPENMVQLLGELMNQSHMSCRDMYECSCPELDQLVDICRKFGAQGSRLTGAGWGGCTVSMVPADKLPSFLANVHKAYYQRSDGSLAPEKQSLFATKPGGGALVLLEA
UniProt P31150: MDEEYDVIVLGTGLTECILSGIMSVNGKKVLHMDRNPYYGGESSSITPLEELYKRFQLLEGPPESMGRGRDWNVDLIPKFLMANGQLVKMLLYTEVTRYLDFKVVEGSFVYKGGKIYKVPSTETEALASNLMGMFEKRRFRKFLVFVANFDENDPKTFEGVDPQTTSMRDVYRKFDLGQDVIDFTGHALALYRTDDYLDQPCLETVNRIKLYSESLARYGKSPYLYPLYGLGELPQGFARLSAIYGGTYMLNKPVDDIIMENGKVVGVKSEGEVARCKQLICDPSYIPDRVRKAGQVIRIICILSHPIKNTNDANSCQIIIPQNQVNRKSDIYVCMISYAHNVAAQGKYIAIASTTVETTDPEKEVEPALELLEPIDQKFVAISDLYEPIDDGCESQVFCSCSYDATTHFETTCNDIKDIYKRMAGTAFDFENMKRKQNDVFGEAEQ
UniProt Q9BTY2: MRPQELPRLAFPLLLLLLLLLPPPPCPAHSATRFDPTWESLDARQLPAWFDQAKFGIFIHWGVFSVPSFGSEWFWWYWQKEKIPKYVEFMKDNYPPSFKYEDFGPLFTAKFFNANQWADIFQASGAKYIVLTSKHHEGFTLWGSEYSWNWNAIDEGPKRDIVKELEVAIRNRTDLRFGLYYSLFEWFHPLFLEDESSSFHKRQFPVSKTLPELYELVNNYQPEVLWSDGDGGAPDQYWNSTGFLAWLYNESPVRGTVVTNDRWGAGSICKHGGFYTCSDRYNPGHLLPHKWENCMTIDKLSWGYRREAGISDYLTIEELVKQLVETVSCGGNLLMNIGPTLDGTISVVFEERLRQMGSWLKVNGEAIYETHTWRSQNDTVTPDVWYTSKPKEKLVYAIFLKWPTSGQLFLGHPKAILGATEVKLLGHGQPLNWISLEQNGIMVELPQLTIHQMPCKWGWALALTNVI
UniProt Q9UJY5: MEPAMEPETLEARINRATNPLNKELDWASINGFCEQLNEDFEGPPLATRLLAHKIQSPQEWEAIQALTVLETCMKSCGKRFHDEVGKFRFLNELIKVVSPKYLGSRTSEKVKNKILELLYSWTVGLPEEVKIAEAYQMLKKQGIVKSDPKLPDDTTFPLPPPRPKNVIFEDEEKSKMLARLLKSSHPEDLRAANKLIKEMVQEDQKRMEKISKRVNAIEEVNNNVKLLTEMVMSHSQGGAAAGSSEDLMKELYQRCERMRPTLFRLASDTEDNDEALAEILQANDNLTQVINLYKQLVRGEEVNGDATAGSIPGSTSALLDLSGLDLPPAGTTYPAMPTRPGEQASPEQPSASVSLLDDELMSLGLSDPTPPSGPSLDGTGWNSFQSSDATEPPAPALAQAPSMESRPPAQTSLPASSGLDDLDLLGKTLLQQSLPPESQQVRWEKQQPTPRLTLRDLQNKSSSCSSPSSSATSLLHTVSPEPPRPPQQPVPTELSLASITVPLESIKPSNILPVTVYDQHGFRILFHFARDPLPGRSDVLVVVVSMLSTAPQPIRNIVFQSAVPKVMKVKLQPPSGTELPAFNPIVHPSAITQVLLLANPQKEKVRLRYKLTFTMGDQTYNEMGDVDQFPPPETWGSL
UniProt P0CL80: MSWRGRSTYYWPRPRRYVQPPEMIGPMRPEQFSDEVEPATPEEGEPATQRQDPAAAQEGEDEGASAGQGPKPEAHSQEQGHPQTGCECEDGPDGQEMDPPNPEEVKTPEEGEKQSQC
UniProt Q96I24: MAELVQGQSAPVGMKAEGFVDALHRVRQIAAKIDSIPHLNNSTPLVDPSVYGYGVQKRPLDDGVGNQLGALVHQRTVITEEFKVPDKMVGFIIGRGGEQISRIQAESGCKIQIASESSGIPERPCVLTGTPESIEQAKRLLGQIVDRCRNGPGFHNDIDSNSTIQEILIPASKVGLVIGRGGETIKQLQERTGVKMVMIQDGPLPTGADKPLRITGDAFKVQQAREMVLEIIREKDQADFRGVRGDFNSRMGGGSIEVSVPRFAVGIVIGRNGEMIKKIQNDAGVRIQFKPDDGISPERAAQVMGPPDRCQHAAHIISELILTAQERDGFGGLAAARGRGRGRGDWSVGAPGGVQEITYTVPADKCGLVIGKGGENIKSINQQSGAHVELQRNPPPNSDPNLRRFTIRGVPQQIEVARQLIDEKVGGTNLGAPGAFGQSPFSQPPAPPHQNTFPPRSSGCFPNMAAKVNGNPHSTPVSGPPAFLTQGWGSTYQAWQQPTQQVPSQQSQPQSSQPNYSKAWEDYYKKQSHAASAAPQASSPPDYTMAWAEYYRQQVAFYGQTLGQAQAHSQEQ
UniProt Q06547, whole entry, looked up: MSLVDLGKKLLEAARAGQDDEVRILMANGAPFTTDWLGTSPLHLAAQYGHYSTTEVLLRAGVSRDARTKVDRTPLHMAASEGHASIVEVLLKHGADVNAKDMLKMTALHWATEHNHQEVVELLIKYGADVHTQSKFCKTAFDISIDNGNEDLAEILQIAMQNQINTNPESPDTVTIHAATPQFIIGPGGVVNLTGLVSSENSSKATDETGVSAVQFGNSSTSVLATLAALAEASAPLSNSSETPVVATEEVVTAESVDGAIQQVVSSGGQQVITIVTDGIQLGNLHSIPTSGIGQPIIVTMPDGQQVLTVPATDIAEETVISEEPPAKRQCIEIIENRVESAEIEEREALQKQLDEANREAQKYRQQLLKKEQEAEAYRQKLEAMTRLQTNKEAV

Tests used:
Assay in all cases: log2 fold change, soluble protein after heating vs DMSO (PISA); higher = thermal stabilisation; K562 lysate, 10 uM; active = over 0.2 and 3.5 SD of the protein, either way, in both replicates (recomputed)
vemurafenib = compound: CCCS(=O)(=O)Nc1ccc(F)c(C(=O)c2c[nH]c3ncc(-c4ccc(Cl)cc4)cc23)c1F [vemurafenib]
Procedure, shortened: (§1)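 A 30 min treatment with 10 μM compound was applied to crude K562 extract at 1 mg/mL protein in PBS pH 7.4 with 1 mM MgCl2. Heating for 3 min spanned 48°C-58°C, after which aliquots were pooled, adjusted to 0.5% NP-40 at 4°C and spun at 21,000xg for 90 min. TMTpro 16plex LC-MS/MS of the supernatant, with channel sums equalised, gave values recorded as log-two fold change in thermal stability against solvent controls, from duplicates.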

[1] = compound: CCCS(=O)(=O)Nc1ccc(F)c(C(=O)c2c[nH]c3ncc(Cl)cc23)c1F
Procedure, shortened: as §1

barasertib = compound: CCN(CCCOc1ccc2c(Nc3cc(CC(=O)Nc4cccc(F)c4)[nH]n3)ncnc2c1)CCOP(=O)(O)O [barasertib]
Procedure, shortened: as §1

[2] = compound: CC[C@@H]1C(=O)N(C)c2cnc(Nc3ccc(C(=O)NC4CCN(C)CC4)cc3OC)nc2N1C1CCCC1
Procedure, shortened: as §1

volasertib = compound: CC[C@@H]1C(=O)N(C)c2cnc(Nc3ccc(C(=O)N[C@H]4CC[C@H](N5CCN(CC6CC6)CC5)CC4)cc3OC)nc2N1C(C)C [volasertib]
Procedure, shortened: as §1

[3] = compound: CCn1c(C(=O)N(C2CC2)C2CC2)cc2c3c(ncn3C)c(Nc3cc(C)n(C)n3)nc21
Procedure, shortened: as §1

[4] = compound: CCn1cc(-c2ccnc3[nH]c(-c4cccc(CN(C)C)c4)cc23)c(-c2ccc(NC(=O)N(C)C)cc2)n1
Procedure, shortened: as §1

[5] = compound: CN1CCC(CNc2ccc3ncc(-c4cccc(OC(F)(F)F)c4)n3n2)CC1
Procedure, shortened: as §1

saracatinib = compound: CN1CCN(CCOc2cc(OC3CCOCC3)c3c(Nc4c(Cl)ccc5c4OCO5)ncnc3c2)CC1 [saracatinib]
Procedure, shortened: as §1

sotrastaurin = compound: CN1CCN(c2nc(C3=C(c4c[nH]c5ccccc45)C(=O)NC3=O)c3ccccc3n2)CC1 [sotrastaurin]
Procedure, shortened: as §1

Measured: log2 fold change

GCSH (UniProt P23434)
inactive: vemurafenib -0.021 | [1] 0.123 | barasertib 0.043 | [2] 0.071 | volasertib 0.046 | [3] -0.02 | [4] -0.002 | [5] -0.009 | saracatinib -0.028 | sotrastaurin 0.006

GAK (UniProt O14976)
inactive: vemurafenib -0.167 | [1] -0.166 | barasertib 0.106 | [2] 0.361 | volasertib -0.017 | [3] -0.035 | [4] -0.083 | [5] 0.442 | saracatinib 0.485 | sotrastaurin 0.082

GDAP2 (UniProt Q9NXN4)
inactive: vemurafenib -0.015 | [1] 0 | barasertib 0.103 | [2] -0.032 | volasertib -0.047 | [3] 0.001 | [4] -0.006 | [5] -0.013 | saracatinib -0.011 | sotrastaurin 0.043

FXN (UniProt Q16595)
inactive: vemurafenib -0.002 | [1] -0.041 | barasertib 0.151 | [2] 0.067 | volasertib 0.055 | [3] 0.019 | [4] 0.167 | [5] -0.136 | saracatinib 0.03 | sotrastaurin -0.019

GFER (UniProt P55789)
inactive: vemurafenib 0 | [1] 0.022 | barasertib 0.048 | [2] 0.111 | volasertib -0.048 | [3] 0.016 | [4] 0.059 | [5] 0 | saracatinib 0.106 | sotrastaurin 0.015

GARS1 (UniProt P41250)
inactive: vemurafenib 0.012 | [1] -0.017 | barasertib -0.001 | [2] -0.013 | volasertib -0.008 | [3] -0.01 | [4] 0.001 | [5] 0.029 | saracatinib -0.011 | sotrastaurin -0.022

GABPA (UniProt Q06546)
inactive: vemurafenib 0.017 | [1] 0.016 | barasertib -0.014 | [2] -0.04 | volasertib -0.006 | [3] -0.028 | [4] -0.166 | [5] 0.087 | saracatinib -0.012 | sotrastaurin 0.006

GFM2 (UniProt Q969S9)
inactive: vemurafenib 0.021 | [1] -0.064 | barasertib -0.115 | [2] 0.018 | volasertib 0.148 | [3] 0.033 | [4] -0.031 | [5] -0.06 | saracatinib -0.014 | sotrastaurin 0.024

GALM (UniProt Q96C23)
inactive: vemurafenib 0.007 | [1] 0.016 | barasertib -0.018 | [2] -0.017 | volasertib -0.01 | [3] -0.004 | [4] 0 | [5] 0.012 | saracatinib 0.018 | sotrastaurin 0.01

GDI2 (UniProt P50395)
inactive: vemurafenib -0.016 | [1] 0.018 | barasertib -0.022 | [2] -0.001 | volasertib -0.004 | [3] -0.017 | [4] 0.193 | [5] -0.049 | saracatinib -0.017 | sotrastaurin -0.004

FOXRED1 (UniProt Q96CU9)
inactive: vemurafenib 0.003 | [1] 0.035 | barasertib 0.018 | [2] 0.047 | volasertib -0.01 | [3] 0.015 | [4] -0.07 | [5] 0.075 | saracatinib 0.009 | sotrastaurin -0.01

FTO (UniProt Q9C0B1)
inactive: vemurafenib 0.119 | [1] 0.042 | barasertib 0.025 | [2] 0.014 | volasertib -0.005 | [3] -0.015 | [4] -0.039 | [5] 0.015 | saracatinib 0.017 | sotrastaurin 0.024

FOXO3 (UniProt O43524)
inactive: vemurafenib 0.043 | [1] 0.077 | barasertib 0.034 | [2] 0.162 | volasertib 0.118 | [3] -0.038 | [4] -0.058 | [5] 0.01 | saracatinib 0.01 | sotrastaurin 0.02

GALK2 (UniProt Q01415)
inactive: vemurafenib -0.004 | [1] 0.001 | barasertib 0.028 | [2] 0.013 | volasertib 0 | [3] -0.014 | [4] -0.02 | [5] 0.01 | saracatinib -0.026 | sotrastaurin -0.003

GADD45GIP1 (UniProt Q8TAE8)
inactive: vemurafenib -0.011 | [1] 0.041 | barasertib 0.047 | [2] 0.018 | volasertib 0.014 | [3] 0.005 | [4] -0.021 | [5] 0.081 | saracatinib -0.039 | sotrastaurin -0.015

Reprinted from above (eight entries):
GAK (UniProt O14976)
inactive: vemurafenib -0.167 | [1] -0.166 | barasertib 0.106 | [2] 0.361 | volasertib -0.017 | [3] -0.035 | [4] -0.083 | [5] 0.442 | saracatinib 0.485 | sotrastaurin 0.082

GDAP2 (UniProt Q9NXN4)
inactive: vemurafenib -0.015 | [1] 0 | barasertib 0.103 | [2] -0.032 | volasertib -0.047 | [3] 0.001 | [4] -0.006 | [5] -0.013 | saracatinib -0.011 | sotrastaurin 0.043

FXN (UniProt Q16595)
inactive: vemurafenib -0.002 | [1] -0.041 | barasertib 0.151 | [2] 0.067 | volasertib 0.055 | [3] 0.019 | [4] 0.167 | [5] -0.136 | saracatinib 0.03 | sotrastaurin -0.019

GFER (UniProt P55789)
inactive: vemurafenib 0 | [1] 0.022 | barasertib 0.048 | [2] 0.111 | volasertib -0.048 | [3] 0.016 | [4] 0.059 | [5] 0 | saracatinib 0.106 | sotrastaurin 0.015

GARS1 (UniProt P41250)
inactive: vemurafenib 0.012 | [1] -0.017 | barasertib -0.001 | [2] -0.013 | volasertib -0.008 | [3] -0.01 | [4] 0.001 | [5] 0.029 | saracatinib -0.011 | sotrastaurin -0.022

GABPA (UniProt Q06546)
inactive: vemurafenib 0.017 | [1] 0.016 | barasertib -0.014 | [2] -0.04 | volasertib -0.006 | [3] -0.028 | [4] -0.166 | [5] 0.087 | saracatinib -0.012 | sotrastaurin 0.006

GFM2 (UniProt Q969S9)
inactive: vemurafenib 0.021 | [1] -0.064 | barasertib -0.115 | [2] 0.018 | volasertib 0.148 | [3] 0.033 | [4] -0.031 | [5] -0.06 | saracatinib -0.014 | sotrastaurin 0.024

GALM (UniProt Q96C23)
inactive: vemurafenib 0.007 | [1] 0.016 | barasertib -0.018 | [2] -0.017 | volasertib -0.01 | [3] -0.004 | [4] 0 | [5] 0.012 | saracatinib 0.018 | sotrastaurin 0.01

(next part)

GFPT1 (UniProt Q06210)
inactive: vemurafenib 0.014 | [1] 0.02 | barasertib 0.009 | [2] -0.026 | volasertib -0.036 | [3] 0.007 | [4] 0.009 | [5] -0.042 | saracatinib 0.009 | sotrastaurin -0.014

GALNT2 (UniProt Q10471)
inactive: vemurafenib 0.013 | [1] 0.014 | barasertib 0.003 | [2] -0.014 | volasertib 0.002 | [3] 0.042 | [4] 0.065 | [5] 0.035 | saracatinib -0.004 | sotrastaurin 0.016

GDPGP1 (UniProt Q6ZNW5)
inactive: vemurafenib 0.005 | [1] 0.013 | barasertib -0.037 | [2] -0.063 | volasertib -0.031 | [3] -0.027 | [4] -0.165 | [5] 0.06 | saracatinib -0.033 | sotrastaurin 0.068

GDI1 (UniProt P31150)
inactive: vemurafenib -0.003 | [1] 0.003 | barasertib -0.002 | [2] -0.04 | volasertib -0.002 | [3] 0.014 | [4] 0.128 | [5] 0.006 | saracatinib 0.008 | sotrastaurin -0.01

FUCA2 (UniProt Q9BTY2)
inactive: vemurafenib 0.023 | [1] -0.011 | barasertib -0.014 | [2] 0 | volasertib 0.007 | [3] -0.001 | [4] -0.154 | [5] 0.111 | saracatinib -0.01 | sotrastaurin -0.028

GDPD1 (UniProt Q8N9F7)
inactive: vemurafenib 0.116 | [1] 0.055 | barasertib -0.005 | [2] 0.041 | volasertib -0.008 | [3] 0.004 | [4] 0.074 | [5] -0.032 | saracatinib -0.023 | sotrastaurin 0.005

GCLM (UniProt P48507)
inactive: vemurafenib 0.014 | [1] 0.025 | barasertib -0.007 | [2] 0 | volasertib -0.015 | [3] -0.013 | [4] -0.011 | [5] -0.012 | saracatinib 0.011 | sotrastaurin -0.022

GGA1 isoform 6 (UniProt Q9UJY5)
inactive: vemurafenib 0.038 | [1] -0.002 | barasertib 0.022 | [2] 0.05 | volasertib 0.005 | [3] -0.048 | [4] 0.006 | [5] -0.02 | saracatinib -0.006 | sotrastaurin 0.031

FRYL (UniProt O94915)
inactive: vemurafenib -0.002 | [1] 0.015 | barasertib 0.054 | [2] -0.01 | volasertib -0.078 | [3] 0.022 | [4] -0.058 | [5] 0.016 | saracatinib 0.014 | sotrastaurin 0.024

GAGE12F (UniProt P0CL80)
inactive: vemurafenib 0.077 | [1] -0.024 | barasertib 0.125 | [2] -0.079 | volasertib 0.059 | [3] -0.032 | [4] -0.054 | [5] -0.002 | saracatinib 0.015 | sotrastaurin 0.064

FUBP3 (UniProt Q96I24)
inactive: vemurafenib -0.007 | [1] 0.019 | barasertib 0.048 | [2] 0.046 | volasertib -0.032 | [3] 0.042 | [4] 0.028 | [5] -0.012 | saracatinib 0.03 | sotrastaurin -0.077

GABPB1 isoform 3 (UniProt Q06547)
inactive: vemurafenib 0.057 | [1] 0.074 | barasertib 0.141 | [2] -0.048 | volasertib -0.11 | [3] -0.016 | [4] -0.042 | [5] -0.028 | saracatinib -0.006 | sotrastaurin -0.022

GAMT (UniProt Q14353)
inactive: vemurafenib 0.037 | [1] 0.045 | barasertib 0.112 | [2] 0.036 | volasertib 0.007 | [3] 0.011 | [4] 0.003 | [5] -0.029 | saracatinib -0.014 | sotrastaurin 0.018

GABPB1 (UniProt Q06547)
inactive: vemurafenib -0.05 | [1] 0.01 | barasertib 0.014 | [2] -0.024 | volasertib 0.025 | [3] 0.006 | [4] 0.193 | [5] -0.199 | saracatinib 0.057 | sotrastaurin 0.023
